Measured values reported in patent US6528619B1, “Inhibitors for urokinase receptor” (Roche Diagnostics GmbH, priority 1997, dated 2003).
Some of these results come from one statement about several compounds together.

By UniProt entry, the sequences of proteins in these tests, tags left out. Residues count along the entry.
UniProt Q03405, 23-305: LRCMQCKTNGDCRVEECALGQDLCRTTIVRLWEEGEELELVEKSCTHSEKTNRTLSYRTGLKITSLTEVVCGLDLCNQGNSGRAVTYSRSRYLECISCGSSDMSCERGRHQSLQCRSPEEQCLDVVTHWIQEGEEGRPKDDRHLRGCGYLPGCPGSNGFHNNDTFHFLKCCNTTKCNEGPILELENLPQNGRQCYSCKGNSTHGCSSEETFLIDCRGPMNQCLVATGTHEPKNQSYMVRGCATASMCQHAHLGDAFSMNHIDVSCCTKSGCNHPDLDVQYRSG

Biological target: T1, cell surface-associated uPAR (Homo sapiens, UniProt Q03405)
T1 construct: After stimulation with PMA the U937 cells expressed considerable amounts of cell surface-associated uPAR; endogenous in cells; host or cells: U937 cells stimulated with PMA
Experiment: Flow cytometry: inhibition of binding of FITC-conjugated pro-uPA to cell surface-associated uPAR on PMA-stimulated U937 cells
Settings: 16 ng FITC-conjugated pro-uPA, 45 min, room temperature
Method: The ability of the synthetic peptides to inhibit the uPA/-uPAR interaction was determined by means of flow cytometry on a FACScan flow cytometer (Becton-Dickinson, Heidelberg, Germany) using the human promyeloid cell line U937 as a source of cellular native uPAR (Chuchulowski et al., Fibrinolysis 6, Suppl. 4 (1992), 95-102; Magdolen et al., (1996), supra). The U937 cells were stimulated with […] phorbol-12-myristate-13-acetate (PMA) for 48 h. After stimulation with PMA the U937 cells expressed considerable amounts of cell surface-associated uPAR.
The stimulated cells were treated for 1 min at room temperature with 50 mM glycine HCl, 0.1 NaCl, pH 3.6 in order to dissociate endogenous receptor-bound uPA. Subsequently the acidic buffer was neutralized with 0.5 M HEPES-100 mM NaCl, pH 7.5. […] Before the analysis, propidium iodide, a fluorescent dye which specifically binds double-stranded DNA, was added to each sample in order to determine the viability of the analysed U937 cells. […]
For this the purified peptides were analysed by mass spectroscopy, quantified by amino acid analysis and then tested by flow cytometry according to the method described in 1.3 for their ability to inhibit the binding of fluorescent-labelled pro-uPA to the uPA receptor on U937 cells.

uPA12-32 [C19A]: peptide with amino acid residues 12 to 32 of uPA, cysteine replaced by alanine in position 19 (Appella et al.) (DCLNGGTAVSNKYFSNIHWCN)
molar excess resulting in a 50% inhibition of the binding of uPA: 15,000 to 12,000 molar excess
